{"source": "PubChem BioAssay AID1159578 (Peter MacCallum Cancer Centre, 2015)", "test": "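Genome-wide hunt for genes controlling movement of lymphatic endothelial cells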 (primary screen)", "system": "human lymphatic endothelial cells", "knock-down reagent": "siRNA pool against human genes, 40 nM", "time to read-out": "48 h after transfection", "detection": "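High-content imaging of dye-stained cells in a scratch assay measures filled wound area and nuclei per well; duplicate means given as ratio to mock and robust z-score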", "scale": "migration robust z-score: higher = faster migration into the scratch; nuclei per well: higher = more cells in the well", "active means": "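Migration changed when robust z exceeds 2 or falls below -2 and mean nuclei number is at least 3300; otherwise not called changed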", "meaning of the calls": "active = migration changed; inactive = no migration change, or too few cells", "note": "The whole screen tested about 18,000 reagents; below is an unselected part. About 1,030 of all reagents (5.7%) count as active. 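Inactive calls also include pools with fewer than 3300 nuclei, whose migration was not assessed.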 Raw values vary from plate to plate and are shown uncorrected. Unmarked entries are inactive. Not all columns of the deposit are shown."}
{"gene": "POTEB3", "migration robust z-score": "2.39 (active)", "nuclei per well, duplicate mean": 4998}
{"gene": "METTL14", "migration robust z-score": 1.81, "nuclei per well, duplicate mean": 4818}
{"gene": "PLCXD3", "migration robust z-score": 0.11, "nuclei per well, duplicate mean": 5907}
{"gene": "PCBD2", "migration robust z-score": 1.55, "nuclei per well, duplicate mean": 5290}
{"gene": "SPATA16", "migration robust z-score": 0.4, "nuclei per well, duplicate mean": 5570}
{"gene": "NUP62", "migration robust z-score": -2.05, "nuclei per well, duplicate mean": 2724}
{"gene": "PRDM6", "migration robust z-score": 1.53, "nuclei per well, duplicate mean": 6227}
{"gene": "GUCY2EP", "migration robust z-score": 0.26, "nuclei per well, duplicate mean": 6415}
{"gene": "EI24", "migration robust z-score": 0.34, "nuclei per well, duplicate mean": 6245}
{"gene": "IRX5", "migration robust z-score": -0.02, "nuclei per well, duplicate mean": 6009}
{"gene": "TTC6", "migration robust z-score": 0.92, "nuclei per well, duplicate mean": 6714}
{"gene": "FAM120AOS", "migration robust z-score": 0.2, "nuclei per well, duplicate mean": 5038}
{"gene": "MTHFD2L", "migration robust z-score": -0.92, "nuclei per well, duplicate mean": 6340}
{"gene": "STK17A", "migration robust z-score": -0.5, "nuclei per well, duplicate mean": 5581}
{"gene": "CYTH2", "migration robust z-score": 1.35, "nuclei per well, duplicate mean": 4934}
{"gene": "LRP5L", "migration robust z-score": 0.45, "nuclei per well, duplicate mean": 6801}
{"gene": "BLID", "migration robust z-score": -0.04, "nuclei per well, duplicate mean": 5337}
{"gene": "PYCR2", "migration robust z-score": 0.08, "nuclei per well, duplicate mean": 5333}
{"gene": "GRAMD1B", "migration robust z-score": -0.87, "nuclei per well, duplicate mean": 3480}
{"gene": "MTHFS", "migration robust z-score": 0.83, "nuclei per well, duplicate mean": 4003}
{"gene": "KRT222", "migration robust z-score": -0.69, "nuclei per well, duplicate mean": 5316}

2 consecutive reagents already listed, for reference:
{"gene": "POTEB3", "migration robust z-score": "2.39 (active)", "nuclei per well, duplicate mean": 4998}
{"gene": "METTL14", "migration robust z-score": 1.81, "nuclei per well, duplicate mean": 4818}
